Results are given in words; binding and its absence hold for the method and conditions named. In cells and extracts the contact can be indirect. Some entries that bind do so weakly or less than the wild type. Where a sequence is shown, tags or fusion partners need not be part of it.
Assays:
[1] = molecular target: T1, Voltage dependent anion channel 2 (VDAC2) (mouse (endogenous in heart)) (UniProt Q60930); test: co-IP; left ventricular lysate of 8-week-old WT and VDAC2-KO mice (4 mg/ml, precleared); 5 ug anti-VDAC2 antibody or control IgG on protein A magnetic beads, 1 h at room temperature, washed with PBST; western blot; KO heart as negative control
T1 sequence: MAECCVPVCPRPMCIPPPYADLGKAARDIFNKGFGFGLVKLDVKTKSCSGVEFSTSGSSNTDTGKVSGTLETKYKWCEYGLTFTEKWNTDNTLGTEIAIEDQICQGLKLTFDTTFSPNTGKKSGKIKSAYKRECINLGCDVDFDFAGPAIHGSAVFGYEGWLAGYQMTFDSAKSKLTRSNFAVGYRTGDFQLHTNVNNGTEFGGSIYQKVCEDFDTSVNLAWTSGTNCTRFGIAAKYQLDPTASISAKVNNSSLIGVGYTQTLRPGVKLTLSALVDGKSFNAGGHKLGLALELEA

Amino acid sequences for entries named in this document (tags omitted). A change or cut given only in a name is not applied to a line headed by its entry. Chains listed by the source or under a name are the forms on record and can include a tag or linker. Residues count along the entry.
Sarcoplasmic endoplasmic reticular calcium ATPase 2 (SERCA2) (O55143-2, form named): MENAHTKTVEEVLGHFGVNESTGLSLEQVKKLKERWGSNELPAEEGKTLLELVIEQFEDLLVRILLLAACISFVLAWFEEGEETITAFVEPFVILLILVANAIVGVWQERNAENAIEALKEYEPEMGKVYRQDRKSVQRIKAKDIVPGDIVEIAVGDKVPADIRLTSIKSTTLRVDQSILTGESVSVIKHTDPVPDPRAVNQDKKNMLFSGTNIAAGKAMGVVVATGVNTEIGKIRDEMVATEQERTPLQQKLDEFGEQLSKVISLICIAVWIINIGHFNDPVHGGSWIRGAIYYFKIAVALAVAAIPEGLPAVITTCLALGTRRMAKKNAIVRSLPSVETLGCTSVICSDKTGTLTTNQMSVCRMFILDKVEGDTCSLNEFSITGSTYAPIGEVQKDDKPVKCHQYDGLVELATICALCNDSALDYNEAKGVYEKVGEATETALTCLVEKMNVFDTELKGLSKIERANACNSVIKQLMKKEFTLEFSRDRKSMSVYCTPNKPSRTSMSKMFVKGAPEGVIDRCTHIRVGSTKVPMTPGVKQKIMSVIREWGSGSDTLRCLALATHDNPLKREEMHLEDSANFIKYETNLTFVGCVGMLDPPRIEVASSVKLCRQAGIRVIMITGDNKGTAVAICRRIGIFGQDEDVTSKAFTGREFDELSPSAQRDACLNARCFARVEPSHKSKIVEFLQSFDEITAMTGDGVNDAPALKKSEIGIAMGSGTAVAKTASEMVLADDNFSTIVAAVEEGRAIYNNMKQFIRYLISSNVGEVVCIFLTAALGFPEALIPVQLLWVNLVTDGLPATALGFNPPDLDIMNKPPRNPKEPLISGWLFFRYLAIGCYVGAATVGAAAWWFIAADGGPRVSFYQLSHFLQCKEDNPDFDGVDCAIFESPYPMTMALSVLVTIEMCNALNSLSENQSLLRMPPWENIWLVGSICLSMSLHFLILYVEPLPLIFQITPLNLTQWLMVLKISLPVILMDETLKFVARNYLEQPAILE
UniProt P70414, residues 33-970: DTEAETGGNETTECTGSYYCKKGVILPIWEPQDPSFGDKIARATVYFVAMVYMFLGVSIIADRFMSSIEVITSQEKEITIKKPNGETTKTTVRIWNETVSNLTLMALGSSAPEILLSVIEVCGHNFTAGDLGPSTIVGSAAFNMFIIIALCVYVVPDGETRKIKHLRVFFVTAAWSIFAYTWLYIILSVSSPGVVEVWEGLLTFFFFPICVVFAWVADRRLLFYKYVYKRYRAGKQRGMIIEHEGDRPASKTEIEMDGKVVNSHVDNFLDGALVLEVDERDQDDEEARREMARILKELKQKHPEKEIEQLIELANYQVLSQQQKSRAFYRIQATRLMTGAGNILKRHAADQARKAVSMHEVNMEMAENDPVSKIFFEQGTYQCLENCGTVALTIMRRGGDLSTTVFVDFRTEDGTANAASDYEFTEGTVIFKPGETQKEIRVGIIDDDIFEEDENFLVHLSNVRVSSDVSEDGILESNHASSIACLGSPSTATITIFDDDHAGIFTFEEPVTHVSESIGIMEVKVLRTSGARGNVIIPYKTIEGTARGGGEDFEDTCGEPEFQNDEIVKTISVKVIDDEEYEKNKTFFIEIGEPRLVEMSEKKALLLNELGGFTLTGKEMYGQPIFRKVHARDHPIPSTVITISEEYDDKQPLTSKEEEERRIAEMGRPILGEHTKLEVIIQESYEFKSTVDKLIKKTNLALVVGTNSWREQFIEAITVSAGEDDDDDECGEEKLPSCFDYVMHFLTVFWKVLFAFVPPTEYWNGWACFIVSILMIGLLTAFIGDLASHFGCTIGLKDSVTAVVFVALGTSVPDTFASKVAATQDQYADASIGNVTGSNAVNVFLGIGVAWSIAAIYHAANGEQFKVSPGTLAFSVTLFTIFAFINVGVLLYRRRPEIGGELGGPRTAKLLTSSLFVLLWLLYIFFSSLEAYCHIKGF

[2] = molecular target: T1, Voltage dependent anion channel 2 (VDAC2) (mouse (endogenous in heart)); test: proximity ligation; Duolink In Situ PLA on paraffin-embedded mouse heart sections with antibodies to VDAC2 and to SERCA2 or NCX1

| Substance | binding [1] | binding [2] |
| --- | --- | --- |
| Sarcoplasmic endoplasmic reticular calcium ATPase 2 (SERCA2) (from UniProt O55143-2 1-998) | binds | binds |
| Sodium–calcium exchanger 1 (NCX1) (from UniProt P70414 33-970) | binds | binds |
